Values after ≈ are worked out from the molar mass of the structure shown.
System: Candida parapsilosis
Test: Antifungal activity against Candida parapsilosis ATCC 22019 assessed as inhibition of fungal growth
Assay type: functional
Conditions: Lodderomyces parapsilosis

OC(Cn1cncn1)(Cn1cncn1)c1ccc(F)cc1F [FLUCONAZOLE]
MIC: 4 mg/L (≈ 13.1 µM)
